The record followed here is publication PMC7819943, “Rice protein-binding microarrays: a tool to detect cis-acting elements near promoter regions in rice”.

Sequences of proteins named here, by UniProt entry; tags and fusion partners are left off.
UniProt Q0JBA9, entry or part of it: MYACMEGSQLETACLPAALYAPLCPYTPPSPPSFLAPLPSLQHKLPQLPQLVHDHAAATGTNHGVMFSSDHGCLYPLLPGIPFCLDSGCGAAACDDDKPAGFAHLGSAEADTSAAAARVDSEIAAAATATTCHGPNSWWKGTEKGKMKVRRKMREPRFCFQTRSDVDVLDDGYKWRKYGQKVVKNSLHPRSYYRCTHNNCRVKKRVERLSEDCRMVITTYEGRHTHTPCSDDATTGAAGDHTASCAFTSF

The other results are listed elsewhere or left out.

The experiment concerns the target OsWRKY34 (Oryza sativa, UniProt Q0JBA9 1-250). In words: protein-binding microarray (RPBM); PBS, 2% BSA, 51.3 ng/ul salmon testes DNA, 50 uM zinc acetate, 200 nM TF, 25 C, 1 h; high values mean tight binding. The conditions noted are these: protein: recombinant; tags: N-terminal polyhistidine and DsRed monomer fusion (pET32a); label: CyDye5-dUTP incorporated in the synthesized complementary strand; 3' TTTTT single-stranded linker to array surface; dsDNA, one strand shown. The procedure, abridged:
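For the binding signal, per-feature fluorescence intensity was read in arbitrary units on an Axon 4000B scanner. Before scanning, a 2% BSA-blocked custom Agilent array made double-stranded with Cy5-dUTP was washed after 1 h at 25 °C with 200 nM protein and 50 µM zinc acetate. The proteins were Ni–NTA-purified transcription factors with N-terminal polyhistidine and DsRed fusions, expressed in E. coli BL21-CodonPlus.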
As to “CCTATATTTTCTTCATTTACCGGCGCACTCTCGCCCGAACCGGAGTCACCTAGTGCAG”, the binding signal was 10100 fluorescence intensity (a.u.).

Take “CACCTTCATGCCCAAAATTTACATGAATTCCTTCCAAACACGGAGTCACCTAGTGCAG”: the binding signal was 8100 fluorescence intensity (a.u.). Then “AGTTCACTTTAGGTCCCTCTATTTGTCGTCCAGTCTGATTCGGAGTCACCTAGTGCAG”, with 8180 fluorescence intensity (a.u.); and “CCGTCACTGCATCCGTTCTACTAATAGTACTCCTACTCACCGGAGTCACCTAGTGCAG”, with 14400 fluorescence intensity (a.u.). Regarding “TCCAGTGTCGTCCTCTGCCGCGTCGGCGTCCCCGTCCGGCCGGAGTCACCTAGTGCAG”, the binding signal is 11200 fluorescence intensity (a.u.). In the case of “TTATACCACCGGATGCTGACACCATTCATCCGCTCTTCCTCGGAGTCACCTAGTGCAG”, the binding signal is 10700 fluorescence intensity (a.u.).

Consider “AGCTCAGCTCTTCCGTGCTTGGATTGGTCATTATTTTTTTCGGAGTCACCTAGTGCAG”, for which the binding signal is 9590 fluorescence intensity (a.u.). Turning to “AGATCGTATAGTGTCTGTTTTCTTCCCGGACTGTTAGTTGCGGAGTCACCTAGTGCAG”, the binding signal was 10800 fluorescence intensity (a.u.). Then “CACAAAAAAGCGCCGTTGTGTTTGACTTTCTAGCTGGCTACGGAGTCACCTAGTGCAG”, with 9930 fluorescence intensity (a.u.). Then “ACTTCTGCTTCCCTCCACGGGCCTAATTATGGGGTCTGTCCGGAGTCACCTAGTGCAG”, with 8560 fluorescence intensity (a.u.); and “TTGTCTTGTTCATCTGTCCTGACTTGTTCTTTTTGTTGTACGGAGTCACCTAGTGCAG”, with 9280 fluorescence intensity (a.u.). Then “GCACACCAATCTCGCTCGCACCACGCCGAAACGCACGTCTCGGAGTCACCTAGTGCAG”, with 8140 fluorescence intensity (a.u.); and “GAAATCAACTACTCCTATTTTCTTCCATGGGGACGGGACACGGAGTCACCTAGTGCAG”, with 11400 fluorescence intensity (a.u.). As for “AATATGTCACATCCGGTCCTGATTCGTTTTTTATGGGACTCGGAGTCACCTAGTGCAG”, the binding signal is 12400 fluorescence intensity (a.u.). For “AGACGCTCTGAAACTCTGTTCTTGTTGGGTCTTTTTTTTTCGGAGTCACCTAGTGCAG”, the binding signal is 9500 fluorescence intensity (a.u.).

As to “ACCCTTTTTGTTTTTGTATTTTTATCATTTCTGTCCACAACGGAGTCACCTAGTGCAG”, the binding signal is 9760 fluorescence intensity (a.u.). As for “GTCTTCTAGTGATGCTCGCTATTTGGTTCTGGGGCTTCCTCGGAGTCACCTAGTGCAG”, the figure is 11900 fluorescence intensity (a.u.); as for “CCTATCCCTTTCTCCGCCACCTTTGTCATCGCACAGTCCACGGAGTCACCTAGTGCAG”, 8420 fluorescence intensity (a.u.). Then “CCGGCAGCCACCCATGGTCCATCAGTTCTTCACACACTTTCGGAGTCACCTAGTGCAG”, with 9890 fluorescence intensity (a.u.); and “TTTCTGGGAGACATTCATTTCCAGCGATCTCTCTAATCCTCGGAGTCACCTAGTGCAG”, with 8050 fluorescence intensity (a.u.); and “CGCCGCCTCCGCCCGCGCCGCCATCGCCGCCGTGTCTTCTCGGAGTCACCTAGTGCAG”, with 8420 fluorescence intensity (a.u.). Then “TTGCCGCTCCCTGCTCTTCTCTTGTGTGAACTCGCGTTTTCGGAGTCACCTAGTGCAG”, with 11000 fluorescence intensity (a.u.); and “CCTTGGGCTGTTTTACCATGGTTTTTGCACACGTGGATGACGGAGTCACCTAGTGCAG”, with 10100 fluorescence intensity (a.u.). For the sequence “GGTTGTCGTCGTCGTCGTGGCCTACGCCTTCGCTGCTGCTCGGAGTCACCTAGTGCAG”, the binding signal was 10600 fluorescence intensity (a.u.). “TGTGGGTTTATTGTCCAACGTTTAACCGTTCATCTTATTTCGGAGTCACCTAGTGCAG”: the binding signal is 9400 fluorescence intensity (a.u.).

With “ATAGCAGTGGTGGGTAATTTACATAAATTTTTTAAGTGCACGGAGTCACCTAGTGCAG”, the binding signal is 11900 fluorescence intensity (a.u.). Consider “TTCTTTTCGGTTTGGATCATCGCAAGCGATCTTTTCACTTCGGAGTCACCTAGTGCAG”, for which the binding signal is 10100 fluorescence intensity (a.u.). Consider “GCCGCTACACTCGATCTACTCTCTCACACACTCCTCTGATCGGAGTCACCTAGTGCAG”, for which the binding signal was 8870 fluorescence intensity (a.u.). Then “ATCGATTCTCTTCATGTGATCTTCACGTGTCCGGCCAATTCGGAGTCACCTAGTGCAG”, with 10100 fluorescence intensity (a.u.); and “CGCACGCTCCCCGACTCCGACTCCGATCCTCTCTCACGCACGGAGTCACCTAGTGCAG”, with 8440 fluorescence intensity (a.u.); and “TTCCCTGACGGCCTATTGAAGAGCTGCCTAGACCACCGCCCGGAGTCACCTAGTGCAG”, with 8290 fluorescence intensity (a.u.). As for “TCCGTTTCTTTTTTGTTTTTGTTTAGGAACAGCATGCTCGCGGAGTCACCTAGTGCAG”, the figure is 12400 fluorescence intensity (a.u.); as for “GTTGAGATTGCAATATTTTATATTTTCTTGTTTGCTTTCACGGAGTCACCTAGTGCAG”, 8140 fluorescence intensity (a.u.). As for “CTCTCTCTGCCATATCCTGTGCTTTTCTTGTATTCCATCCCGGAGTCACCTAGTGCAG”, the binding signal was 11400 fluorescence intensity (a.u.). For the sequence “AAGGTTCATCGGACCCACGTGTCAGCTGATTGCTTATTCTCGGAGTCACCTAGTGCAG”, the binding signal was 8100 fluorescence intensity (a.u.). As for “GAGCTTTGCGCTGGGTGGGCTTGCATTTTTGGGTCTACCGCGGAGTCACCTAGTGCAG”, the figure is 21500 fluorescence intensity (a.u.). On to “TGCGTGCTGCTGCTTATTTACTGCCAGCTCTTTCTGCTAGCGGAGTCACCTAGTGCAG”, for which the binding signal is 8320 fluorescence intensity (a.u.).

For the sequence “ATTTTAATGGATTTCTGCAAACTTTTAGTAGTAGTAGTATCGGAGTCACCTAGTGCAG”, the binding signal is 8490 fluorescence intensity (a.u.). As for “ACCACCCAGCTCTCTCCACTCCACTCTCGCGTTCTTGTGGCGGAGTCACCTAGTGCAG”, the figure is 8680 fluorescence intensity (a.u.); as for “AGTGGGTGGTGGTGGTGGTGGTGGTGCGAGGCCGTCGCTGCGGAGTCACCTAGTGCAG”, 20500 fluorescence intensity (a.u.). Take “ATTTTCCTAGGTTCTTATACTTCTGGCTACCGCAAATTCCCGGAGTCACCTAGTGCAG”: the binding signal was 11800 fluorescence intensity (a.u.).

“CAATCTCTCTCTCTCTCTCTCTCGCTGCTGCTGCTCCTTCCGGAGTCACCTAGTGCAG”: the binding signal is 9770 fluorescence intensity (a.u.).
